Results are given in words; binding and its absence hold for the method and conditions named. Some binding calls cover weakened binding; strength is not graded here.

This note sets out measurements from patent publication US20250353912A1, “COMPOSITIONS AND METHODS COMPRISING ANTIBODIES THAT BIND TO COVALENT PEPTIDE CONJUGATES” (New York University, priority 2022, published 2025).

For the experiment, the target named is T1, poly-Ser peptide with central Cys conjugated to AMG-510.
T1 sequence (peptide, AMG-510 on Cys; Lys-long chain biotin; C-terminal amide): SSSSCSSSSWK
Kind of experiment: yeast display, flow cytometry (FIG. 6).

B1: P2AMR-12 (scFv, V domains shown)
VH: QVQLQESGPGLVKPSETLSLTCTVSGDSIINDPHYWGWIRQSPGKGLEWIGSTSHSGHTYFNPSLKSRVSMSIDVAKNQFSLNVRSVTAADTAVYYCARMRYYYSGTYPVYYFDYWGQGTLVTVSS
For the molecule B1, the binding entry is “binds”.
